Measured values reported in publication PMC8406723.
No constants are given. Whether binding was seen depends on the method and setting. Binding seen in cells or lysates may run through a third protein. A result given as binding can be weak or reduced; the word gives no strength.

Protein sequences, listed by entry. Tags and fused reporters are not part of them. Lines headed by an entry give the natural chain unless they say otherwise; changes in a name come on top.
UniProt P61956: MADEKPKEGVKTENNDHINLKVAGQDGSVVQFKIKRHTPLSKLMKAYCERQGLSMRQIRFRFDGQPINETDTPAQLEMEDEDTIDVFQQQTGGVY
UniProt P11166: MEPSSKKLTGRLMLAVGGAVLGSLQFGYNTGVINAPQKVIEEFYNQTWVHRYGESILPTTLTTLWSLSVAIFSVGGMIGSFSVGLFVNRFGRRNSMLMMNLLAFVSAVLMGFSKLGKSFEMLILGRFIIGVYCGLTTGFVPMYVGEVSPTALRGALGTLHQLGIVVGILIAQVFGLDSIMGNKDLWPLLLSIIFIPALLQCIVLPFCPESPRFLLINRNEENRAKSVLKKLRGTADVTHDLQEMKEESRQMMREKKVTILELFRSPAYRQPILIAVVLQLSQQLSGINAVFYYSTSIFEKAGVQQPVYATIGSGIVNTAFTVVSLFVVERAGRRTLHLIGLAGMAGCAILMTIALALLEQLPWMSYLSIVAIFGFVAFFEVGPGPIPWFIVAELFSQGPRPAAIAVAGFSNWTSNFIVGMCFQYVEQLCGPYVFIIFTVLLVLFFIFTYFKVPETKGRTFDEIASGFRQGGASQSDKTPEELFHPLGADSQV

Columns and labels:
[1] = biological target: HA-SUMO2 (Small Ubiquitin-like Modifier 2) (UniProt P61956); assay: co-IP; anti-HA (SUMO2) antibody on protein A/G magnetic beads; lysates of HNE2 and CNE2 cells transfected with HA-SUMO2 vector; GLB+ lysis buffer (150 mM NaCl, 10 mM Tris-HCl pH 7.5, 0.5% Triton X-100, 10 mM EDTA pH 8.0), 4 °C overnight; western blotting with anti-GLUT1 and anti-UBC9
[2] = biological target: Flag-GLUT1 (Glucose transporter type 1) (UniProt P11166); assay: co-IP; anti-Flag (GLUT1) antibody on protein A/G magnetic beads; lysates of HNE2 and CNE2 cells transfected with Flag-GLUT1 vector; GLB+ lysis buffer (150 mM NaCl, 10 mM Tris-HCl pH 7.5, 0.5% Triton X-100, 10 mM EDTA pH 8.0), 4 °C overnight; western blotting with anti-SUMO2 and anti-UBC9

| binding [1] | binding [2] | Substance |
| --- | --- | --- |
| binds |  | Glucose transporter type 1 (GLUT1), endogenous (from UniProt P11166 1-492) |
|  | binds | Small Ubiquitin-like Modifier 2 (SUMO2), endogenous (from UniProt P61956) |
